Assay results published in paper PMC10409759.
Results are given in words; binding and its absence hold for the method and conditions named. Binding seen in cells or lysates may run through a third protein. Binding can be weak; no strength is given. Where a sequence is shown, tags or fusion partners need not be part of it.

Target: Flag-tagged LEF1 HMG domain (human (cDNA from CAL 27 cells))
Test: co-IP; Flag- and EGFP-tagged proteins overexpressed together in HEK293T; whole-cell lysates; IP with antibodies against Flag and blot against EGFP (Fig. 2E, 2F); IgG or pCMV6 plasmid as negative control

B1: EGFP-tagged KDM4A (protein, UniProt O75164 1-1064)
chain: MASESETLNPSARIMTFYPTMEEFRNFSRYIAYIESQGAHRAGLAKVVPPKEWKPRASYDDIDDLVIPAPIQQLVTGQSGLFTQYNIQKKAMTVREFRKIANSDKYCTPRYSEFEELERKYWKNLTFNPPIYGADVNGTLYEKHVDEWNIGRLRTILDLVEKESGITIEGVNTPYLYFGMWKTSFAWHTEDMDLYSINYLHFGEPKSWYSVPPEHGKRLERLAKGFFPGSAQSCEAFLRHKMTLISPLMLKKYGIPFDKVTQEAGEFMITFPYGYHAGFNHGFNCAESTNFATRRWIEYGKQAVLCSCRKDMVKISMDVFVRKFQPERYKLWKAGKDNTVIDHTLPTPEAAEFLKESELPPRAGNEEECPEEDMEGVEDGEEGDLKTSLAKHRIGTKRHRVCLEIPQEVSQSELFPKEDLSSEQYEMTECPAALAPVRPTHSSVRQVEDGLTFPDYSDSTEVKFEELKNVKLEEEDEEEEQAAAALDLSVNPASVGGRLVFSGSKKKSSSSLGSGSSRDSISSDSETSEPLSCRAQGQTGVLTVHSYAKGDGRVTVGEPCTRKKGSAARSFSERELAEVADEYMFSLEENKKSKGRRQPLSKLPRHHPLVLQECVSDDETSEQLTPEEEAEETEAWAKPLSQLWQNRPPNFEAEKEFNETMAQQAPHCAVCMIFQTYHQVEFGGFNQNCGNASDLAPQKQRTKPLIPEMCFTSTGCSTDINLSTPYLEEDGTSILVSCKKCSVRVHASCYGVPPAKASEDWMCSRCSANALEEDCCLCSLRGGALQRANDDRWVHVSCAVAILEARFVNIAERSPVDVSKIPLPRFKLKCIFCKKRRKRTAGCCVQCSHGRCPTAFHVSCAQAAGVMMQPDDWPFVVFITCFRHKIPNLERAKGALQSITAGQKVISKHKNGRFYQCEVVRLTTETFYEVNFDDGSFSDNLYPEDIVSQDCLQFGPPAEGEVVQVRWTDGQVYGAKFVASHPIQMYQVEFEDGSQLVVKRDDVYTLDEELPKRVKSRLSVASDMRFNEIFTEKEVKQEKKRQRVINSRYREDYIEPALYRAIME
  binding: binds
